Measured values as given in publication PMC5650356.
No constants are given. Whether binding was seen depends on the method and setting. In cells and extracts the contact can be indirect. Binding can be weak; no strength is given. Sequences can lack the tags named with a protein.

T1: Flag-tagged FAM83D (family with sequence similarity 83, member D) (human) (UniProt Q9H4H8)
T1 sequence: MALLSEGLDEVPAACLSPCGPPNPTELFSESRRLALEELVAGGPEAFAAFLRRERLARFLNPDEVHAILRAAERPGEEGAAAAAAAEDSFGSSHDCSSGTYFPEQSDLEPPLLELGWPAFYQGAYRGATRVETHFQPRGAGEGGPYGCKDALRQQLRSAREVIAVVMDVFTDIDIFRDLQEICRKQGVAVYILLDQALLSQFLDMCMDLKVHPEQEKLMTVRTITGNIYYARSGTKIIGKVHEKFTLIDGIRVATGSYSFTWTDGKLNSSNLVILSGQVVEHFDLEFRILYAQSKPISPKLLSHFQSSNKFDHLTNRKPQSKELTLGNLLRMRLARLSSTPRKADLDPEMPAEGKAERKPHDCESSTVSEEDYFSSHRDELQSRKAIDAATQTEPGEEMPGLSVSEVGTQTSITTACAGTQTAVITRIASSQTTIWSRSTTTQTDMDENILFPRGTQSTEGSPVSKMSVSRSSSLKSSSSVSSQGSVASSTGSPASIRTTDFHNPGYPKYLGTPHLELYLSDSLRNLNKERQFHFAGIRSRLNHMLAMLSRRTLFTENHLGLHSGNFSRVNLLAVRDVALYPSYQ


Assays:
[1] = biological target: T1, Flag-tagged FAM83D (family with sequence similarity 83, member D) (human); test: co-IP; flag-tagged AGS/FAM83D cells, mitotic (300nM nocodazole 24h, shake-off); NP-40 lysis buffer, pre-cleared; primary antibodies overnight at 4 °C, protein A/G plus agarose 4h at 4 °C; five washes in lysis buffer; Western blot
[2] = biological target: α-tubulin (human (endogenous in AGS)); test: as above

binding [1]	binding [2]	Molecule
binds		α-tubulin (human (endogenous in AGS))
	binds	Flag-tagged FAM83D (family with sequence similarity 83, member D) (protein, UniProt Q9H4H8 1-585) MALLSEGLDEVPAACLSPCGPPNPTELFSESRRLALEELVAGGPEAFAAFLRRERLARFLNPDEVHAILRAAERPGEEGAAAAAAAEDSFGSSHDCSSGTYFPEQSDLEPPLLELGWPAFYQGAYRGATRVETHFQPRGAGEGGPYGCKDALRQQLRSAREVIAVVMDVFTDIDIFRDLQEICRKQGVAVYILLDQALLSQFLDMCMDLKVHPEQEKLMTVRTITGNIYYARSGTKIIGKVHEKFTLIDGIRVATGSYSFTWTDGKLNSSNLVILSGQVVEHFDLEFRILYAQSKPISPKLLSHFQSSNKFDHLTNRKPQSKELTLGNLLRMRLARLSSTPRKADLDPEMPAEGKAERKPHDCESSTVSEEDYFSSHRDELQSRKAIDAATQTEPGEEMPGLSVSEVGTQTSITTACAGTQTAVITRIASSQTTIWSRSTTTQTDMDENILFPRGTQSTEGSPVSKMSVSRSSSLKSSSSVSSQGSVASSTGSPASIRTTDFHNPGYPKYLGTPHLELYLSDSLRNLNKERQFHFAGIRSRLNHMLAMLSRRTLFTENHLGLHSGNFSRVNLLAVRDVALYPSYQ
